The list shows a part of the results. These are further read-outs of the screen, such as a control signal, another cell line or another target. No call is given for them. Most of these compounds were active or inconclusive in the main read-out, so they are no random draw. The note in brackets gives the kind of curve behind each potency; many fits are weak.
Assay: qHTS Assay for Modulators of Lamin A Splicing
Details: HeLa LMNA splicing GFP/RFP minigene ratio, 48 h
How it was run: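 Read-out is the ratio of GFP to DsRed2 object intensity, acquired by 488 nm laser-scanning cytometry on HeLa lamin A-EGFP minigene reporter cells. Compound incubation 48 hrs at 37 °C in Opti-MEM with 2% FBS; DMSO 0.5% final.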

[1] = measured here: GFP splicing reporter channel
[2] = measured here: RFP viability control channel

SMILES | AC50 [1] | AC50 [2]
CN1CCN(c2ncc3nc(-c4cccc(C#N)c4)c(=O)n(CCc4ccccc4)c3n2)CC1 | 12.6 µM [falling, partial curve] | 22.4 µM [falling, single point]
Cc1nc(CC(C)C)cc(C(=O)N2CCCC(CNS(=O)(=O)c3cccs3)C2)n1 (stereo not drawn) | 0.0316 µM [rising, full curve, poor fit] | –
CCn1c(=O)cc(SCC(=O)Nc2ccc(OC)c(OC)c2)c2ccccc21 | – | 12.6 µM [rising, partial curve]
COc1ccc2ccccc2c1C(O)c1nccn1C (stereo not drawn) | 11.2 µM [rising, partial curve] | –
Cc1ccc(CONC(=O)c2ccc(OC(F)F)cc2)cc1 | 5.62 µM [falling, partial curve] | 4.47 µM [falling, partial curve]
O=C(NCc1nnc2c3ccccc3c(-c3ccccc3)nn12)c1ccccc1Cl | 12.6 µM [rising, partial curve, poor fit] | 22.4 µM [rising, partial curve, poor fit]
Cn1nc(C(F)(F)F)c(C#N)c1N1CCN(c2ccc(F)cc2)CC1 | – | 11.2 µM [rising, single point]
CN(C)CCCn1c(-c2ccc(Cl)cc2)csc1=Nc1ccccc1 | 22.4 µM [falling, single point] | –
CCOc1cccc(CN2CCCC(C(=O)c3cccc(C(F)(F)F)c3)C2)c1O (stereo not drawn) | – | 2.82 µM [rising, single point]
Cc1cccc(CNc2ncnc3ccc(-c4c(C)noc4C)cc23)c1 | 0.708 µM [falling, full curve] | 6.31 µM [rising, full curve]
CCC(C)(C)n1nnnc1CN1CCN(C(c2ccccc2)c2ccccc2)CC1 | 15.8 µM [rising, single point] | 15.8 µM [rising, single point]
Cc1ccc(C(=O)CSc2nnc(COc3cccc4cccnc34)o2)cc1 | 14.1 µM [rising, partial curve] | 15.8 µM [rising, single point]
COc1ccc(-c2cc(CNS(=O)(=O)c3ccccc3)on2)cc1 | 11.2 µM [falling, partial curve] | 35.5 µM [falling, partial curve, poor fit]
CNC(=O)/C(=C/c1ccc2c(c1)OCO2)NC(=O)c1ccc(Br)cc1 | – | 0.00447 µM [rising, full curve, poor fit]
O=C(c1ccco1)N(Cc1cccs1)c1ccc(F)cc1 | 0.0355 µM [falling, full curve, poor fit] | 0.0631 µM [falling, full curve, poor fit]
CCN(CC)C(=O)c1oc2ccc(S(=O)(=O)N3CCCCCC3)cc2c1C | – | 15.8 µM [rising, partial curve]
Cc1cc(N/N=C/c2ccccc2Br)nc2ccccc12 | – | 35.5 µM [rising, single point]
O=C(CN1CCN(C/C=C/c2ccccc2)CC1)Nc1cc([N+](=O)[O-])ccc1Cl | – | 12.6 µM [rising, single point]
Cc1cc(C(=O)CCl)c(C)n1-c1c(C)n(C)n(-c2ccccc2)c1=O | – | 0.0355 µM [rising, full curve, poor fit]
CC1Cc2ccccc2N1C(=S)Nc1cccc(S(=O)(=O)N(C)C)c1 (stereo not drawn) | 2.51 µM [rising, partial curve, poor fit] | –
Cc1ccc(-c2csc3ncnc(Sc4nnc(CN5CCCCCC5=O)o4)c23)cc1 | 5.62 µM [rising, single point] | 5.62 µM [rising, single point]
CC(C)(C)NC(=O)CCCSc1nc2ccccc2s1 | – | 35.5 µM [rising, single point]
CCOC(=O)c1c(-c2ccccc2)csc1NC(=O)CSc1nc(N)cc(N)n1 | – | 12.6 µM [rising, partial curve]
CCOC(=O)/C=c1\s/c(=C\c2sccc2C)c(=O)n1CC(=O)NCc1ccc(C)cc1 | 4.47 µM [falling, full curve] | 5.62 µM [falling, full curve]
COC(=O)c1c(-c2ccc(Cl)cc2)noc1N1CCN(c2ccccc2OC)CC1 | 5.01 µM [falling, single point] | 2.82 µM [falling, full curve]
CCn1ncc(/C=N/NC(=O)c2ccc3c(c2)OCO3)c1C | 22.4 µM [falling, single point] | 35.5 µM [falling, single point]
CSc1ccc(-c2nnn(Cc3ccccn3)n2)cc1 | 17.8 µM [rising, single point] | 22.4 µM [rising, single point]

Molecules listed so far that have an aryl thioether with sulfur outside any ring (6):
SMILES | AC50 [1] | AC50 [2]
CCn1c(=O)cc(SCC(=O)Nc2ccc(OC)c(OC)c2)c2ccccc21 | – | 12.6 µM [rising, partial curve]
Cc1ccc(C(=O)CSc2nnc(COc3cccc4cccnc34)o2)cc1 | 14.1 µM [rising, partial curve] | 15.8 µM [rising, single point]
Cc1ccc(-c2csc3ncnc(Sc4nnc(CN5CCCCCC5=O)o4)c23)cc1 | 5.62 µM [rising, single point] | 5.62 µM [rising, single point]
CC(C)(C)NC(=O)CCCSc1nc2ccccc2s1 | – | 35.5 µM [rising, single point]
CCOC(=O)c1c(-c2ccccc2)csc1NC(=O)CSc1nc(N)cc(N)n1 | – | 12.6 µM [rising, partial curve]
CSc1ccc(-c2nnn(Cc3ccccn3)n2)cc1 | 17.8 µM [rising, single point] | 22.4 µM [rising, single point]

(listing goes on)

SMILES | AC50 [1] | AC50 [2]
Cc1ccc(C(=O)OCC(=O)N2CC(=O)Nc3ccccc32)s1 | 0.0126 µM [rising, full curve, poor fit] | 22.4 µM [rising, partial curve]
CC(=O)Nc1nc(N)n(-c2ccccc2)n1 | 2.51 µM [rising, partial curve, poor fit] | 2.82 µM [rising, partial curve]
CCn1c(=NC(=O)c2ccc(S(=O)(=O)N(C)C)cc2)sc2cccc(OC)c21 | 3.55 µM [falling, partial curve] | 3.16 µM [falling, partial curve]
COc1cccc(NC(=O)CN2C(=O)NC(C)(CC(C)C)C2=O)c1 (stereo not drawn) | – | 0.562 µM [rising, partial curve, poor fit]
Cc1ccc(C2CC(C(F)F)n3ncc(C(=O)Nc4c(C)nn(Cc5c(F)cccc5Cl)c4C)c3N2)cc1 (stereo not drawn) | – | 6.31 µM [rising, partial curve, poor fit]
Cc1cccc(NC(=O)c2ccc(CN3CC(=O)N4CCCCC4C3=O)cc2)c1C (stereo not drawn) | – | 0.141 µM [falling, single point]
C[C@H](O)C(=O)C1=Nc2c(nc(N)[nH]c2=O)NC1 | 5.62 µM [falling, partial curve, poor fit] | 6.31 µM [falling, single point]
CC(C)C[C@H](NC(=O)NC(C)C)C(=O)O | 2.82 µM [rising, partial curve] | 1.78 µM [rising, full curve, poor fit]
Cc1cc(N2CCN(c3cccc(C)c3C)CC2)nc(-c2ccccc2)n1 | – | 35.5 µM [rising, single point]
CN(C)CCC(c1ccc(Cl)cc1)c1ccccn1 (stereo not drawn) | 0.891 µM [falling, full curve] | 5.62 µM [falling, partial curve, poor fit]
Cn1cc(-c2nc3cnc(N4CCOCC4)nc3n(CCC#N)c2=O)c2ccccc21 | – | 11.2 µM [falling, single point]
CN(C)c1cccc(C(=O)N/N=C/c2ccsc2)c1 | 0.0316 µM [falling, full curve, poor fit] | –
O=S(=O)(c1cccc(Cl)c1)n1c(/C=C/c2ccccc2Cl)nc2ccccc21 | 14.1 µM [rising, single point] | –
CCn1cnc2sc(C(=O)N3CCN(Cc4ccc5c(c4)OCO5)CC3)c(C)c2c1=O | 11.2 µM [rising, partial curve, poor fit] | 14.1 µM [rising, partial curve]
O=C(O)CNC(=O)c1nc(-c2ccccc2)n(-c2ccccc2)n1 | – | 0.2 µM [falling, full curve, poor fit]
Cc1ccc(S(=O)(=O)/N=C2/C=C(Sc3ncn[nH]3)C(=O)c3ccccc32)cc1 | 4.47 µM [falling, full curve] | 4.47 µM [falling, full curve]
Oc1cccc(O)c1O | 0.708 µM [rising, full curve, poor fit] | 14.1 µM [rising, partial curve, poor fit]
COC1=CC(=O)C[C@@H](C)[C@]12Oc1c(Cl)c(OC)cc(OC)c1C2=O | 11.2 µM [rising, single point] | –
S=C(NCCCc1ccccc1)Nc1ccc(Cl)cc1 | – | 17.8 µM [rising, single point]
COC(=O)c1ccc(Cn2cnc3c(cnn3-c3ccc(C)c(C)c3)c2=O)o1 | 20 µM [rising, single point] | 22.4 µM [rising, single point]
Cc1nc2ccccc2n1CC(=O)N/N=C/c1cccs1 | – | 25.1 µM [rising, single point]
CC(C)Oc1ccc(C(=O)Nc2nnc3n2CCS3)cc1 | – | 17.8 µM [falling, partial curve, poor fit]
Cc1ccc(C)c(NC(=O)C2CCCN2C(=O)OC(C)(C)C)c1 (stereo not drawn) | 5.62 µM [rising, single point] | 5.62 µM [rising, single point]
S=C(Nc1ccc(Oc2ccccc2)cc1)NC1CCCCCC1 | – | 12.6 µM [rising, partial curve, poor fit]
C#CCNC(=O)c1ccc(OCc2ccccc2)cc1Cl | 31.6 µM [falling, partial curve] | –
Cc1ccc(OCC(=O)N2CC(C)OC(C)C2)c([N+](=O)[O-])n1 (stereo not drawn) | 0.794 µM [rising, full curve, poor fit] | –
COCCN(CCOC)S(=O)(=O)c1ccc(C(=O)NC2CCN(Cc3ccccc3)CC2)cc1 | – | 17.8 µM [rising, partial curve, poor fit]

Part of the list above in order of count of non-hydrogen atoms, falling.
SMILES | AC50 [1] | AC50 [2]
O=C(NCc1nnc2c3ccccc3c(-c3ccccc3)nn12)c1ccccc1Cl | 12.6 µM [rising, partial curve, poor fit] | 22.4 µM [rising, partial curve, poor fit]
CCOc1cccc(CN2CCCC(C(=O)c3cccc(C(F)(F)F)c3)C2)c1O (stereo not drawn) | – | 2.82 µM [rising, single point]
CCn1c(=NC(=O)c2ccc(S(=O)(=O)N(C)C)cc2)sc2cccc(OC)c21 | 3.55 µM [falling, partial curve] | 3.16 µM [falling, partial curve]
